In publication PMC4072510 one finds binding data, which are given here for three molecules.

Sequences of proteins named here, by UniProt entry; tags and fusion partners are left off.
UniProt O75626: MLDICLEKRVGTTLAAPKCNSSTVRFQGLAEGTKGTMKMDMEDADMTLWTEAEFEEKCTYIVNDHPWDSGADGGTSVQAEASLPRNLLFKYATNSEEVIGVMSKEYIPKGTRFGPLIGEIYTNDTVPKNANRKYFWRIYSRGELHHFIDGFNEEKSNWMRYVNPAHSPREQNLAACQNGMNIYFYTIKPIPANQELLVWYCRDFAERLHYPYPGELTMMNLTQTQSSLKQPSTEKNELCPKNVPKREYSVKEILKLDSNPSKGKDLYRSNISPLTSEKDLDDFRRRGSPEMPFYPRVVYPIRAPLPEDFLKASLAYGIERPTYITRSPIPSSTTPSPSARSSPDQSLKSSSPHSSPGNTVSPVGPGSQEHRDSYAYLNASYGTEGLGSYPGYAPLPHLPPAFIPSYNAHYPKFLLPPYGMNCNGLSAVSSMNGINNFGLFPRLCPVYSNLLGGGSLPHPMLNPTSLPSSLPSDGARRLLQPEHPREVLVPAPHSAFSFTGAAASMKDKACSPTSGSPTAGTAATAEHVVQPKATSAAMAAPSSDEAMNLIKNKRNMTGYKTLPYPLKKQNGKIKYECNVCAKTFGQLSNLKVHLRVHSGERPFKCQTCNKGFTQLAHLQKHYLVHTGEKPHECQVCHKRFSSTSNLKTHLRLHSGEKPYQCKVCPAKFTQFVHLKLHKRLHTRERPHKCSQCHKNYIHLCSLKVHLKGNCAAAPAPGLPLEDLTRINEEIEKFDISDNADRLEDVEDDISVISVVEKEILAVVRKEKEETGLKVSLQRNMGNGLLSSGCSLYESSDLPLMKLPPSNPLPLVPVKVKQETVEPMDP
UniProt Q93560: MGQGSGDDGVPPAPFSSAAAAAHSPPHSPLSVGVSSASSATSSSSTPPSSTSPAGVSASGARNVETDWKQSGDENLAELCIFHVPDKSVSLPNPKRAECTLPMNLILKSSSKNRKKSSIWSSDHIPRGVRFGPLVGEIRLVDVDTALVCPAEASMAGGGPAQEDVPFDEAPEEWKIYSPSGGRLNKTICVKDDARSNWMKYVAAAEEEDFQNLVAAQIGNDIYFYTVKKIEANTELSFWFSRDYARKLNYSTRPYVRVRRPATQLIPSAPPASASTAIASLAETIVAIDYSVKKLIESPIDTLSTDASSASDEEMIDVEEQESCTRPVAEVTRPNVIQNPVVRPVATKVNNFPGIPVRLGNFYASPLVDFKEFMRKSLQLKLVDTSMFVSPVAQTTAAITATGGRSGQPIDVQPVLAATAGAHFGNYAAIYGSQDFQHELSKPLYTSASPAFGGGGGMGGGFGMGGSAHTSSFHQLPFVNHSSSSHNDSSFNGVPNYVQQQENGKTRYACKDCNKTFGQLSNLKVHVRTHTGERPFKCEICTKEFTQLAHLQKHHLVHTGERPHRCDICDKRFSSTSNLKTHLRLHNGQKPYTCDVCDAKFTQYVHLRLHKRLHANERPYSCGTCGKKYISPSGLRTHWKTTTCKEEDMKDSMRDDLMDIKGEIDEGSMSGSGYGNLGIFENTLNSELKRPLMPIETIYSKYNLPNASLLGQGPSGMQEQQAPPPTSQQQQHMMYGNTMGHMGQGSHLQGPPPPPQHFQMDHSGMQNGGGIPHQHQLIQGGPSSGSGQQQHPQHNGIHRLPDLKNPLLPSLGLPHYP

What all share (test): co-IP; HEK293T cells transfected with the indicated plasmids, MG132 (20 µM) 2 h before harvest; 1% NP-40 lysis buffer with protease inhibitor; anti-HA or anti-Myc agarose beads overnight at 4°C; Western blotting with anti-HA, anti-Myc or anti-CUL1
Background: In western blotting, separated proteins are transferred to a membrane and probed.

For test [1], the target named is T1, Myc-tagged DRE-1 (C. elegans) (UniProt Q94251).
T1 sequence: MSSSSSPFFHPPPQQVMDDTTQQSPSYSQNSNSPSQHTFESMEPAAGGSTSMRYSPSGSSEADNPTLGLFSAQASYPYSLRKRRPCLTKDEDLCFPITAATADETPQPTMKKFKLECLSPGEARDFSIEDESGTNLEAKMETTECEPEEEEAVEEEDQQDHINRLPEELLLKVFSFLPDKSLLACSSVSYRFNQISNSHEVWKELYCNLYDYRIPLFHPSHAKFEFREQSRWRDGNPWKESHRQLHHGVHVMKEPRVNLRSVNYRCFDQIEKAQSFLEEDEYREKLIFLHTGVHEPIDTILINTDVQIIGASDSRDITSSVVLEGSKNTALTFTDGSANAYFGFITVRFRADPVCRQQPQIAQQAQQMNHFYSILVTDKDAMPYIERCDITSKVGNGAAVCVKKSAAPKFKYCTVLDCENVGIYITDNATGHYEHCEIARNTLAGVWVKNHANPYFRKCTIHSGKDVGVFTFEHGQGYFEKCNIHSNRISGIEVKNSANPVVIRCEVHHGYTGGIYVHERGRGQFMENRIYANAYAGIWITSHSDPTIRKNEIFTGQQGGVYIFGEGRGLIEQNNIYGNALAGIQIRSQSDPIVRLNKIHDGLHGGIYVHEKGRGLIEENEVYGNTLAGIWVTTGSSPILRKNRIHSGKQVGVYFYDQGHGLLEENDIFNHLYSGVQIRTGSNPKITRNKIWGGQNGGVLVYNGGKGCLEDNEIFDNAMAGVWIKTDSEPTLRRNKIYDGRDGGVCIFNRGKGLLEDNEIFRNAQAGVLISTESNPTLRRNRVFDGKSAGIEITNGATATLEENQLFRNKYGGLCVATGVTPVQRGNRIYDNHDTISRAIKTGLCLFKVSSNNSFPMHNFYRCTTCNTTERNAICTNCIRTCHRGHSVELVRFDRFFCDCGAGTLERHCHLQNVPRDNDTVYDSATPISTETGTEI

In test [2] the target is HA-tagged PRDI-BF1 (human) (UniProt O75626).
Test [3] concerns the target HA-tagged BLMP-1 (C. elegans) (UniProt Q93560).

Results are given in words; binding and its absence hold for the method and conditions named. In cells and extracts the contact can be indirect. Some binding calls cover weakened binding; strength is not graded here. Tags and fused reporters may be left off the sequences shown.

As for “HA-tagged BLMP-1 (from UniProt Q93560 1-817)”, the binding result in test [1] is “binds”.

B1: Myc-tagged FBXO11 (protein, UniProt Q86XK2 1-927)
chain: MNSVRAANRRPRRVSRPRPVQQQQQQPPQQPPPQPPQQQPPQQQPPPPPQQQQQQQPPPPPPPPPPLPQERNNVGERDDDVPADMVAEESGPGAQNSPYQLRRKTLLPKRTACPTKNSMEGASTSTTENFGHRAKRARVSGKSQDLSAAPAEQYLQEKLPDEVVLKIFSYLLEQDLCRAACVCKRFSELANDPILWKRLYMEVFEYTRPMMHPEPGKFYQINPEEYEHPNPWKESFQQLYKGAHVKPGFAEHFYSNPARYKGRENMLYYDTIEDALGGVQEAHFDGLIFVHSGIYTDEWIYIESPITMIGAAPGKVADKVIIENTRDSTFVFMEGSEDAYVGYMTIRFNPDDKSAQHHNAHHCLEITVNCSPIIDHCIIRSTCTVGSAVCVSGQGACPTIKHCNISDCENVGLYITDHAQGIYEDNEISNNALAGIWVKNHGNPIIRRNHIHHGRDVGVFTFDHGMGYFESCNIHRNRIAGFEVKAYANPTVVRCEIHHGQTGGIYVHEKGRGQFIENKIYANNFAGVWITSNSDPTIRGNSIFNGNQGGVYIFGDGRGLIEGNDIYGNALAGIQIRTNSCPIVRHNKIHDGQHGGIYVHEKGQGVIEENEVYSNTLAGVWVTTGSTPVLRRNRIHSGKQVGVYFYDNGHGVLEDNDIYNHMYSGVQIRTGSNPKIRRNKIWGGQNGGILVYNSGLGCIEDNEIFDNAMAGVWIKTDSNPTLRRNKIHDGRDGGICIFNGGRGLLEENDIFRNAQAGVLISTNSHPILRKNRIFDGFAAGIEITNHATATLEGNQIFNNRFGGLFLASGVNVTMKDNKIMNNQDAIEKAVSRGQCLYKISSYTSYPMHDFYRCHTCNTTDRNAICVNCIKKCHQGHDVEFIRHDRFFCDCGAGTLSNPCTLAGEPTHDTDTLYDSAPPIESNTLQHN
As for B1, the binding entry in test [2] is listed as “binds”.

B2: Myc-tagged DRE-1 (protein, UniProt Q94251 1-936)
chain: T1 sequence
B2: the binding entry in test [3] is “binds”.
